Results reported in paper doi:10.1101/679936.
Results are given in words; binding and its absence hold for the method and conditions named. Binding seen in cells or lysates may run through a third protein. Some results given as binding are weak or reduced against the parent protein; the word gives no strength. Where a sequence is shown, tags or fusion partners need not be part of it.

What was measured:
[1] = target: T1, FLAG-SCAP D451A/L452A (hamster) (UniProt P97260); test: co-IP
T1 sequence: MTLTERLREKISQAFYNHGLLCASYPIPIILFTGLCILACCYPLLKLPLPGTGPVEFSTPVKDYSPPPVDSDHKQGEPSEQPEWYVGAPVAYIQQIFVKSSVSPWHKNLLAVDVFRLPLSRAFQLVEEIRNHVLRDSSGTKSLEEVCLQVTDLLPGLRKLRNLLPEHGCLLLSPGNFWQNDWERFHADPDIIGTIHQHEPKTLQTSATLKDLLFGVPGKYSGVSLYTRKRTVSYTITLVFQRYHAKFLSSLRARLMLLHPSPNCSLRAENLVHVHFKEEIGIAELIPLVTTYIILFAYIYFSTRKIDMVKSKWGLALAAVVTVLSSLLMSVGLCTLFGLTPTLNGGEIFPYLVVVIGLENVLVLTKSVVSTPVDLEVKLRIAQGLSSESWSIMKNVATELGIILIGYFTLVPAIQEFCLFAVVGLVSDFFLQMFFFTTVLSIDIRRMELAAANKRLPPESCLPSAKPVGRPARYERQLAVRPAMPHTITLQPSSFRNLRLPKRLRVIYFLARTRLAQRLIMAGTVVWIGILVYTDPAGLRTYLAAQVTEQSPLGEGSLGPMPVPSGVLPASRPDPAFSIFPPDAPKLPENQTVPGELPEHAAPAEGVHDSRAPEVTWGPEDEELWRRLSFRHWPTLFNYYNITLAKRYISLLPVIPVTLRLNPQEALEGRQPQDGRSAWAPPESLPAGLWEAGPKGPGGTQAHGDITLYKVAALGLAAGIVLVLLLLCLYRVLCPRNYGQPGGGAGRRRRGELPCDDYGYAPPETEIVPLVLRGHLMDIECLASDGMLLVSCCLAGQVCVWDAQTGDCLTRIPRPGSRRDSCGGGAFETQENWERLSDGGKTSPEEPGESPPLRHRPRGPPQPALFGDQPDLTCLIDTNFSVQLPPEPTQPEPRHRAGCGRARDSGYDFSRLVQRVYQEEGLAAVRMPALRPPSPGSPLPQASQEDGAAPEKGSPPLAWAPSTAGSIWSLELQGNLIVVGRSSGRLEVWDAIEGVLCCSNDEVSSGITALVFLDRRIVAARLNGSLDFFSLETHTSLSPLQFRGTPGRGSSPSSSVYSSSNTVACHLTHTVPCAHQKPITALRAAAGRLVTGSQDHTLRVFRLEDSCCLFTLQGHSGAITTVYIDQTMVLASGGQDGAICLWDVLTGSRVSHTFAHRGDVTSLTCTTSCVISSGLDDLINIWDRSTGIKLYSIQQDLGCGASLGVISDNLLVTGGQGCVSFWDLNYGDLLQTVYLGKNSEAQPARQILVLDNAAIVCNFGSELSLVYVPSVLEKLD

[2] = target: T2, FLAG-SREBP2 (UniProt Q12772); test: co-IP
T2 sequence: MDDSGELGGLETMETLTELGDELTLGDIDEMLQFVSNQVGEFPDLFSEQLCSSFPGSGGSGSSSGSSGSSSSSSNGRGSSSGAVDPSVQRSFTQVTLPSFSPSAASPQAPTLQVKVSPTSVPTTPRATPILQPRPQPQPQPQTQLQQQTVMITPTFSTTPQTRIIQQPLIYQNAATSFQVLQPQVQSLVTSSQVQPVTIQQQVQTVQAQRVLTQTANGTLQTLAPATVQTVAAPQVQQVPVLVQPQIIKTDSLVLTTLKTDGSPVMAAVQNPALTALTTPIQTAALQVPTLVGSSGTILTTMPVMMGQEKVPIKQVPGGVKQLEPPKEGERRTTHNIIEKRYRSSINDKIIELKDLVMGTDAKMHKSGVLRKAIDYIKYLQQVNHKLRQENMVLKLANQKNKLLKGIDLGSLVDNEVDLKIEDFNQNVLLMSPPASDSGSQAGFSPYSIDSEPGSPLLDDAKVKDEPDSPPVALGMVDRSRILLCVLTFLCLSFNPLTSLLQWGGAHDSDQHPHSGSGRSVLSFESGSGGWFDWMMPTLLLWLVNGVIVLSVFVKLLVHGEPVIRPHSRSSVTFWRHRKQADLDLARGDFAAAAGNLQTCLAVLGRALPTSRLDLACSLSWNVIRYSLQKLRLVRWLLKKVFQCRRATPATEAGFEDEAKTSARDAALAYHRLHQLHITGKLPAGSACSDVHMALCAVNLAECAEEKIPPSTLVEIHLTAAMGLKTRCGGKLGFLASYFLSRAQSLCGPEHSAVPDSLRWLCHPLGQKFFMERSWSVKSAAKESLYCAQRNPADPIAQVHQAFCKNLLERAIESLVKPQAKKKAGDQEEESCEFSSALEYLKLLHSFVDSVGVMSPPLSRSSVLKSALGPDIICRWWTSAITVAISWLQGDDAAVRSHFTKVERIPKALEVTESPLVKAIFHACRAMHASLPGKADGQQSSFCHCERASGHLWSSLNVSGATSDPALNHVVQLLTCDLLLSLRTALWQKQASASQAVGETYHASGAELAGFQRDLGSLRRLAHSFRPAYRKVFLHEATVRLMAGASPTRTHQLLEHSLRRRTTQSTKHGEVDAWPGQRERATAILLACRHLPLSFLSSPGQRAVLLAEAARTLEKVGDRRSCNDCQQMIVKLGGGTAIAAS

binding [1]: binds weakly
binding [2]: binds
B1: Sac1, endogenous in HEK 293T (protein, UniProt Q9NTJ5 1-587)
chain: MATAAYEQLKLHITPEKFYVEACDDGADDVLTIDRVSTEVTLAVKKDVPPSAVTRPIFGILGTIHLVAGNYLIVITKKIKVGEFFSHVVWKATDFDVLSYKKTMLHLTDIQLQDNKTFLAMLNHVLNVDGFYFSTTYDLTHTLQRLSNTSPEFQEMSLLERADQRFVWNGHLLRELSAQPEVHRFALPVLHGFITMHSCSINGKYFDWILISRRSCFRAGVRYYVRGIDSEGHAANFVETEQIVHYNGSKASFVQTRGSIPVFWSQRPNLKYKPLPQISKVANHMDGFQRHFDSQVIIYGKQVIINLINQKGSEKPLEQTFATMVSSLGSGMMRYIAFDFHKECKNMRWDRLSILLDQVAEMQDELSYFLVDSAGQVVANQEGVFRSNCMDCLDRTNVIQSLLARRSLQAQLQRLGVLHVGQKLEEQDEFEKIYKNAWADNANACAKQYAGTGALKTDFTRTGKRTHLGLIMDGWNSMIRYYKNNFSDGFRQDSIDLFLGNYSVDELESHSPLSVPRDWKFLALPIIMVVAFSMCIICLLMAGDTWTETLAYVLFWGVASIGTFFIILYNGKDFVDAPRLVQKEKID
